Measured values published in publication doi:10.1101/2020.03.28.013953.
Construct, isoform or probe ends are uncertain for at least one entry. Weaker means in comparison with the reference protein, sequence or condition of that experiment. Where a protein sequence is shown, tags need not be part of it.

Columns and labels:
[1] = target: T1, ParB2 (Deinococcus radiodurans R1 (ATCC13939)) (UniProt Q9RZE7); test: EMSA; conditions: 5 mM MgSO4
T1 sequence (looked up, limits assumed): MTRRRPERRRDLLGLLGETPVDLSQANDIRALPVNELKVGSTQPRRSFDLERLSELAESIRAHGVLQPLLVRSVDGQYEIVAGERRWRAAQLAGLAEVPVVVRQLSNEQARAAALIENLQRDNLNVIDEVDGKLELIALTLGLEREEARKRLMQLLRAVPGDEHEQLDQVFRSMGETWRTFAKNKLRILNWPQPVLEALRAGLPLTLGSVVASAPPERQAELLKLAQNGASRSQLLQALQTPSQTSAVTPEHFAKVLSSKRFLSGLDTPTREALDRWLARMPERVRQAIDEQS

[2] = target: T2, ParB3 (Deinococcus radiodurans R1 (ATCC13939)) (UniProt Q9RZV8); test: EMSA; conditions: 5 mM MgSO4
T2 sequence (looked up, limits assumed): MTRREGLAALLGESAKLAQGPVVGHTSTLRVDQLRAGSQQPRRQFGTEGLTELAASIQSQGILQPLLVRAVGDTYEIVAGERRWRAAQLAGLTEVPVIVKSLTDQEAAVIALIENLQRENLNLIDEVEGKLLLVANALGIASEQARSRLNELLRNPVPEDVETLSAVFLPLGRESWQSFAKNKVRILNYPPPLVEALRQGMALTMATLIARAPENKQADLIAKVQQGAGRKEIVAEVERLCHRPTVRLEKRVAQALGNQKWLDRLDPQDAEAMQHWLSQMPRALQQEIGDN

Sequence	binding result [1]	binding result [2]
CTCCACAAAGTGCCACAGGTAATTCCACAAAGTGCCACAGGC (double strand) [cisII 2 repeats]	binds more weakly	
ACGCAAAGGTGTCGCTATTTTGACCCCAAATCCCGCAAAGGTGTCGCTAT (double strand) [cisMP 2 repeats]		binds more weakly
